Usually IC50 stands for the concentration at which inhibition is half-maximal.

Chains of the proteins cited; added tags and fusions are not shown.
UniProt P22001, whole entry: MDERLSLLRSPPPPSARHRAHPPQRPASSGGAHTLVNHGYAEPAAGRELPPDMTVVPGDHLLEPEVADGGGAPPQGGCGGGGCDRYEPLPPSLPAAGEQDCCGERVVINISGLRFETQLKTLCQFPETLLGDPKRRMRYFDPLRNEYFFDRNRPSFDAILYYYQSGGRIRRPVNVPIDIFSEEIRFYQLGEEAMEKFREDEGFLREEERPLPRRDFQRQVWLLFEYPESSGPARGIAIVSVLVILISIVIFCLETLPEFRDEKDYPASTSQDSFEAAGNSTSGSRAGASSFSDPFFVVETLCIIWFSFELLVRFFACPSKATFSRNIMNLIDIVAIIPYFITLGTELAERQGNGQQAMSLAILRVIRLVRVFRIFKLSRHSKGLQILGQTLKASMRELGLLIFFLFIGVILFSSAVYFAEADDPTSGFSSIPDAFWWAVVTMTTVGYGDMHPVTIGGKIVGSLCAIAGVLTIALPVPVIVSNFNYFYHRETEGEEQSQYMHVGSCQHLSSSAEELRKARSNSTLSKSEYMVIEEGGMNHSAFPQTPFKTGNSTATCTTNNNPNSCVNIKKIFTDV

Structures were worked out from names or drawings and are uncertain.

For this experiment, the target named is Kv1.3 potassium channel (Homo sapiens, UniProt P22001). Briefly: Kv1.3 potassium channel blocker activity, automated whole-cell patch clamp (Patchliner) in CHO-K1 cells stably expressing Kv1.3. The conditions noted are these: read-out: Kv1.3 IC50, current inhibition. How it is done:
Example 82. Evaluation of Kv1.3 potassium channel blocker activities
This assay is used to evaluate the disclosed compounds' activities as Kv1.3 potassium channel blockers.
CHO-K1 cells stably expressing Kv1.3 were grown in DMEM containing 10% heat-inactivated FBS, 1 mM sodium pyruvate, 2 mM L-glutamine, and G418 (500 μg/ml). Cells were grown in culture flasks at 37° C. in a 5% CO2-humidified incubator.
The cells were bathed in an extracellular solution containing 140 mM NaCl, 4 mM KCl, 2 mM CaCl2), 1 mM MgCl2, 5 mM glucose, 10 mM HEPES; pH adjusted to 7.4 with NaOH; 295-305 mOsm. The internal solution contained 50 mM KCl, 10 mM NaCl, 60 mM KF, 20 mM EGTA, 10 mM HEPES; pH adjusted to 7.2 with KOH; 285 mOsm. All compounds were dissolved in DMSO at 30 mM. Compound stock solutions were freshly diluted with external solution to concentrations of 30 nM, 100 nM, 300 nM, 1 μM, 3 μM, 10 μM, 30 μM and 100 μM. The highest content of DMSO (0.3%) was present in 100 μM.
The currents were evoked by applying 100 ms depolarizing pulses from −90 mV (holding potential) to +40 mV were applied with 0.1 Hz frequency. Control (compound-free) and compound pulse trains for each compound concentration applied contained 20 pulses. 10-second breaks were used between pulse trains (see Table A below). […]
A general note: Patch clamp records ionic current or voltage across a cell membrane.

Consider `Oc1cc(Cl)c(Cl)cc1C1CCNC1` (single isomer, unassigned), for which the IC50 was below 10 µM.

Turning to `N#Cc1ccc(O)c(C2CCNCC2)c1Cl`, the IC50 was below 10 µM.

Values taken from patent US20230026611A1, “ARYL HETEROCYCLIC COMPOUNDS AS Kv1.3 POTASSIUM SHAKER CHANNEL BLOCKERS” (D. E. Shaw Research, LLC, priority 2019, published 2023).
